Results are given in words; binding and its absence hold for the method and conditions named. Binding seen in cells or lysates may run through a third protein. Some entries that bind do so weakly or less than the wild type.

Chains of the proteins cited; added tags and fusions are not shown.
UniProt Q61221: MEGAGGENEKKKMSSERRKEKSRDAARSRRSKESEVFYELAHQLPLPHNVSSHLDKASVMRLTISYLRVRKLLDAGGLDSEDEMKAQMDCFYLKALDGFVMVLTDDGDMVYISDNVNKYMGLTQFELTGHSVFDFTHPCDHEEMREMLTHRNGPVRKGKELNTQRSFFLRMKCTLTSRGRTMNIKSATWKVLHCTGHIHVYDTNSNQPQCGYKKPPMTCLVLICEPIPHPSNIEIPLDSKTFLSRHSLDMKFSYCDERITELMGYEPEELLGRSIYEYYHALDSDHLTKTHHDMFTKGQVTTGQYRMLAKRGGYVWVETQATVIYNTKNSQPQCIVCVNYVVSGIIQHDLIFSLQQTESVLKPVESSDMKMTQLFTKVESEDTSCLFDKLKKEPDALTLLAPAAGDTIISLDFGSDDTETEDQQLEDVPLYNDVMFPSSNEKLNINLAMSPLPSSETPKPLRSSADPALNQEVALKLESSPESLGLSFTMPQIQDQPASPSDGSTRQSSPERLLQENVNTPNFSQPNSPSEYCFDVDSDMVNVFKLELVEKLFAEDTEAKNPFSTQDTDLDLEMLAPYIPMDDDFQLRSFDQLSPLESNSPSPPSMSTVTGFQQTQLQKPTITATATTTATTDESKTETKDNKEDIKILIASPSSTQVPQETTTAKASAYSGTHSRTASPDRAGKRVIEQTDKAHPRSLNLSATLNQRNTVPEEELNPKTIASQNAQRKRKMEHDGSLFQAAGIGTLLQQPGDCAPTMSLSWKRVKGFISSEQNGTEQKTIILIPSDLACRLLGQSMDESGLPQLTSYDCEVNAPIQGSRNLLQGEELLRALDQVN
UniProt Q9WTV6: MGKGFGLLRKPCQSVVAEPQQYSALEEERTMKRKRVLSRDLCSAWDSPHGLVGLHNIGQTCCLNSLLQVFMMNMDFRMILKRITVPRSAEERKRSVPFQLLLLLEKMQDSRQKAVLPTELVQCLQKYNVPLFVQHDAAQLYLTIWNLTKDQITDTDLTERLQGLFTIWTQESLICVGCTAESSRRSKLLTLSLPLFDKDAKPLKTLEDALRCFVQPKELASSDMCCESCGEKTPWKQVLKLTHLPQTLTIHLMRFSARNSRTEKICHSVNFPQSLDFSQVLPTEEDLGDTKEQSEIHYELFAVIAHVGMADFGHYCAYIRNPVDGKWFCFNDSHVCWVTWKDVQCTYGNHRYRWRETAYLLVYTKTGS

For the test, the target named is HIF-1α (mouse (endogenous in SCMECs)) (UniProt Q61221). The test can be described thus: co-IP; endogenous proteins in SCMEC lysate (NP-40 lysis buffer) after AGAPIR agomir treatment; anti-USP18, anti-HIF-1α or control IgG pre-coupled to protein A/G PLUS-agarose beads, 4 °C overnight; western blot. (In general: A western blot detects proteins with antibodies after separation by electrophoresis.)

With “USP18 (from UniProt Q9WTV6 1-368) (enzyme)”, the binding entry is “binds”.
